Measurements published in patent US20190202926A1.
Results are given in words; binding and its absence hold for the method and conditions named. Some binding calls cover weakened binding; strength is not graded here. One block for each binder: values may come before it.

The chains behind the UniProt entries cited, without tags or fusion partners. Residues count along the entry.
UniProt O00220, residues 24-239: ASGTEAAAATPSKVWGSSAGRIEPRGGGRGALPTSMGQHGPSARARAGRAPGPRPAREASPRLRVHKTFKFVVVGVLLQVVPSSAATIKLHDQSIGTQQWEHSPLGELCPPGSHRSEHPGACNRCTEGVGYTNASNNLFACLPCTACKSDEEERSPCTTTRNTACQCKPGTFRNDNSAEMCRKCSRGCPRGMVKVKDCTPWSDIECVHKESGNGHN

Legend:
[1] = molecular target: sTRAIL-R1 (Peprotech cat nr 310-18) (human) (UniProt O00220); assay: ELISA, coated sTRAIL-R1, FIG. 3
[2] = molecular target: sTRAIL-R1 (Peprotech cat nr 310-18) (human) (UniProt O00220); assay: ELISA, coated sTRAIL-R1 2 µg/mL

binding [1]: binds | binding [2]: binds
B1: IgG1-DR4-T1014G03-K409R (antibody, V domains shown)
VH: EVQLVQSGAEVKMPGASVKLSCRVSGDTFTAYFIHWVRQAPGQGLEWMGWFNPISGTAGSAEKFRGRVAMTRDTSISTAYMELNRLTFDDTAVYYCARQHRGNTFDPWGQGTLVTVSS
VL: QSALTQPASVSGSPGQSITISCTGTSSDIGAYKYVSWYQQHPGKAPKLVIYEVSNRPSGVSSRFSGSKSGQTASLTISGLQADDEADYYCNSYQGYNTWVFGGGTKVTVLG

binding [1]: binds | binding [2]: binds
B2: IgG1-DR4-T1014G03-K409R-E430G (antibody, V domains shown)
VH: B1 VH
VL: B1 VL
